These are yes or no findings as the source states them, for the method shown. Binding seen in cells or lysates may run through a third protein. Some binding calls cover weakened binding; strength is not graded here. Sequences can lack the tags named with a protein.
Biological target: FLAG-tagged CD36 (UniProt P16671)
Experiment: co-IP; total lysates of SGC 7901 cells expressing FLAG-CD36, IP with FLAG antibody, western blotting with the indicated antibodies; Pierce Co-Immunoprecipitation kit

Protein sequences, listed by entry. Tags and fused reporters are not part of them.
UniProt P16671: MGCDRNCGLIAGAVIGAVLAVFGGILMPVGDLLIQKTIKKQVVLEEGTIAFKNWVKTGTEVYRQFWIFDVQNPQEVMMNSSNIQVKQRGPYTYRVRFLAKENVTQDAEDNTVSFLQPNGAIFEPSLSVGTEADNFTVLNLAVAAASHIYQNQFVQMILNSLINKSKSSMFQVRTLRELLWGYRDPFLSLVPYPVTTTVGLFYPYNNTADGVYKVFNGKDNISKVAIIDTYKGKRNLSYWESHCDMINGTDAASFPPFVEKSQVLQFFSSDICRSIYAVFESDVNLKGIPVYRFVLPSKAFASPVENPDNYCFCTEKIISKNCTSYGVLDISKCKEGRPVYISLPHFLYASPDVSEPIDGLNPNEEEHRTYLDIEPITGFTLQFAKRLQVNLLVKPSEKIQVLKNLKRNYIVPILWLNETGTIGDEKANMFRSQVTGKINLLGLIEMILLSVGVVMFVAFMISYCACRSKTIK

binding: binds
B1: O-linked N-acetylglucosamine transferase (OGT) (enzyme, UniProt O15294 1-1046)
chain: MASSVGNVADSTEPTKRMLSFQGLAELAHREYQAGDFEAAERHCMQLWRQEPDNTGVLLLLSSIHFQCRRLDRSAHFSTLAIKQNPLLAEAYSNLGNVYKERGQLQEAIEHYRHALRLKPDFIDGYINLAAALVAAGDMEGAVQAYVSALQYNPDLYCVRSDLGNLLKALGRLEEAKACYLKAIETQPNFAVAWSNLGCVFNAQGEIWLAIHHFEKAVTLDPNFLDAYINLGNVLKEARIFDRAVAAYLRALSLSPNHAVVHGNLACVYYEQGLIDLAIDTYRRAIELQPHFPDAYCNLANALKEKGSVAEAEDCYNTALRLCPTHADSLNNLANIKREQGNIEEAVRLYRKALEVFPEFAAAHSNLASVLQQQGKLQEALMHYKEAIRISPTFADAYSNMGNTLKEMQDVQGALQCYTRAIQINPAFADAHSNLASIHKDSGNIPEAIASYRTALKLKPDFPDAYCNLAHCLQIVCDWTDYDERMKKLVSIVADQLEKNRLPSVHPHHSMLYPLSHGFRKAIAERHGNLCLDKINVLHKPPYEHPKDLKLSDGRLRVGYVSSDFGNHPTSHLMQSIPGMHNPDKFEVFCYALSPDDGTNFRVKVMAEANHFIDLSQIPCNGKAADRIHQDGIHILVNMNGYTKGARNELFALRPAPIQAMWLGYPGTSGALFMDYIITDQETSPAEVAEQYSEKLAYMPHTFFIGDHANMFPHLKKKAVIDFKSNGHIYDNRIVLNGIDLKAFLDSLPDVKIVKMKCPDGGDNADSSNTALNMPVIPMNTIAEAVIEMINRGQIQITINGFSISNGLATTQINNKAATGEEVPRTIIVTTRSQYGLPEDAIVYCNFNQLYKIDPSTLQMWANILKRVPNSVLWLLRFPAVGEPNIQQYAQNMGLPQNRIIFSPVAPKEEHVRRGQLADVCLDTPLCNGHTTGMDVLWAGTPMVTMPGETLASRVAASQLTCLGCLELIAKNRQEYEDIAVKLGTDLEYLKKVRGKVWKQRISSPLFNTKQYTMELERLYLQMWEHYAAGNKPDHMIKPVEVTESA

Reference: paper PMC6691574
